Among the data in PubChem BioAssay AID328 (DTP/NCI, 2004) are T/C and survivor count values, retold here.

The list does not hold the whole screen: it is rich in T/C values a quarter to a half above the control, in often repeated tests (any T/C) and in doses without a T/C. Other doses and runs of a compound stand elsewhere. T/C: endpoint of the treated group in % of that of the vehicle group. Some entries give survivors of the animals treated and no T/C: the source files T/C as zero there, which appears to mark a toxic dose or a test without result, not a measured value. Some doses without a T/C left all or most animals alive at the check, yet need not have been tolerated: the source hardly ever lists a survival T/C far under the control, and the zero likely stands for such cases as well. Survivors were counted at the toxicity check, usually on the fifth day, unless a day is given; later deaths do not show. Schedule codes are those of the source, taken here to give the interval after Q, in days (D) or hours (H), and the number of doses after X. Where survival is the endpoint, this PubChem deposit counts one and a half times the control or more as active, and values a quarter to a half above the control carry no call in these data; other NCI protocols may use other cut-offs. Some T/C values are followed by the survivors on the day toxicity was checked, most often the fifth; without a count, all were alive then.

For this assay, the system named is BDF1 mice, P388 leukemia ip, median survival T/C. The experiment in a line: NCI In Vivo Anticancer Drug Screen. Data for tumor model P388 Leukemia (intraperitoneal) in B6D2F1 (BDF1) mice. Conditions: T/C endpoint: median survival time, higher T/C = longer survival. As to the method:
The antitumor activity of compounds was measured in mice bearing transplantable tumors. Survival or tumor size were measured and the results are expressed as the measurement made in the treated group (T) divided by the measurement made in the vehicle treated control group (C). The tumor model used in this assay is P388 Leukemia (intraperitoneal) in B6D2F1 (BDF1) mice

Turning to `COC1=C(N)C(=O)c2nc(-c3nc(C(=O)O)c(C)c(-c4ccc(OC)c(OC)c4O)c3N)ccc2C1=O`, the T/C reads like this: (dose: 0.02 mg/kg/injection, schedule: Q01DX010 (ip), vehicle: saline) 130 % of control; (dose: 0.03 mg/kg/injection, schedule: Q01DX010 (ip), vehicle: saline) 127 % of control; (dose: 0.05 mg/kg/injection, schedule: Q01DX009 (ip), vehicle: other) 127 % of control; (dose: 0.05 mg/kg/injection, schedule: Q01DX010 (ip), vehicle: other) 136 % of control; (dose: 0.07 mg/kg/injection, schedule: Q01DX009 (ip), vehicle: dioxane, evaluated on day 5) 126 % of control; (dose: 0.07 mg/kg/injection, schedule: Q01DX009 (ip), vehicle: dioxane, evaluated on day 30) 126 % of control. The T/C was 139 % of control (dose: 0.08 mg/kg/injection, schedule: Q01DX009 (ip), vehicle: saline with Tween-80); 140 % of control (dose: 0.1 mg/kg/injection, schedule: Q01DX009 (ip), vehicle: other); 145 % of control (dose: 0.1 mg/kg/injection, schedule: Q01DX010 (ip), vehicle: other); 145 % of control (dose: 0.1 mg/kg/injection, schedule: Q01DX010 (ip), vehicle: steroid suspending solution); 145 % of control (dose: 0.1 mg/kg/injection, schedule: Q01DX010 (ip), vehicle: water); 127 % of control (dose: 0.1 mg/kg/injection, schedule: Q04DX002 (ip), vehicle: saline). Moreover, the T/C (dose: 0.12 mg/kg/injection, schedule: Q01DX009 (ip), vehicle: saline with Tween-80) is 135 % of control; the T/C (dose: 0.18 mg/kg/injection, schedule: Q01DX009 (ip), vehicle: saline with Tween-80) was 139 % of control; the T/C (dose: 0.19 mg/kg/injection, schedule: Q01DX010 (ip), vehicle: other) was 136 % of control; the T/C (dose: 0.19 mg/kg/injection, schedule: Q01DX010 (ip), vehicle: steroid suspending solution) is 140 % of control; the T/C (dose: 0.2 mg/kg/injection, schedule: Q01DX009 (ip), vehicle: other) was 131 % of control; the T/C (dose: 0.2 mg/kg/injection, schedule: Q01DX009 (ip), vehicle: saline) was 133 % of control. The T/C was 131 % of control (dose: 0.2 mg/kg/injection, schedule: Q01DX010 (ip), vehicle: saline); 138 % of control (dose: 0.2 mg/kg/injection, schedule: Q04DX009 (ip), vehicle: saline); 133 % of control (dose: 0.25 mg/kg/injection, schedule: Q04DX003 (ip), vehicle: other); 139 % of control (dose: 0.39 mg/kg/injection, schedule: Q04DX002 (ip), vehicle: saline); 138 % of control (dose: 0.39 mg/kg/injection, schedule: Q04DX009 (ip), vehicle: saline); 145 % of control (dose: 0.4 mg/kg/injection, schedule: Q01DX009 (ip), vehicle: saline). Moreover, the T/C reads like this: (dose: 0.4 mg/kg/injection, schedule: Q04DX003 (ip), vehicle: other) 127 % of control; (dose: 0.4 mg/kg/injection, schedule: Q08DX002 (ip), vehicle: other) 127 % of control; (dose: 0.5 mg/kg/injection, schedule: Q08DX002 (ip), vehicle: other) 125 % of control; (dose: 12.5 micrograms/kg/injection, schedule: Q01DX010 (ip), vehicle: steroid suspending solution) 125 % of control; (dose: 25.0 micrograms/kg/injection, schedule: Q01DX010 (ip), vehicle: steroid suspending solution) 140 % of control; (dose: 31.3 micrograms/kg/injection, schedule: Q03HX024 (ip), vehicle: other) 125 % of control. Further, the T/C was 125 % of control (dose: 50.0 micrograms/kg/injection, schedule: Q01DX010 (ip), vehicle: steroid suspending solution); 141 % of control (dose: 62.5 micrograms/kg/injection, schedule: Q01DX009 (ip), vehicle: other); 140 % of control [5 of 6 alive] (dose: 100.0 micrograms/kg/injection, schedule: Q01DX010 (ip), vehicle: steroid suspending solution); 141 % of control (dose: 125.0 micrograms/kg/injection, schedule: Q01DX009 (ip), vehicle: other); 127 % of control (dose: 144.0 micrograms/kg/injection, schedule: Q04DX003 (ip), vehicle: alkali diluted with saline); 135 % of control (dose: 240.0 micrograms/kg/injection, schedule: Q04DX003 (ip), vehicle: alkali diluted with saline). The T/C (dose: 400.0 micrograms/kg/injection, schedule: Q04DX003 (ip), vehicle: alkali diluted with saline) is 126 % of control. Moreover, the survivor count was 6 of 6 (dose: 0.2 mg/kg/injection, schedule: Q01DX010 (ip), vehicle: water); 6 of 6 (dose: 0.38 mg/kg/injection, schedule: Q01DX010 (ip), vehicle: other); 6 of 6 (dose: 0.38 mg/kg/injection, schedule: Q01DX010 (ip), vehicle: steroid suspending solution); 6 of 6 (dose: 0.4 mg/kg/injection, schedule: Q01DX010 (ip), vehicle: water); 2 of 6 (dose: 0.76 mg/kg/injection, schedule: Q01DX010 (ip), vehicle: steroid suspending solution); 3 of 3 (dose: 0.78 mg/kg/injection, schedule: Q04DX009 (ip), vehicle: saline). Moreover, the survivor count is, setting by setting: (dose: 0.8 mg/kg/injection, schedule: Q01DX010 (ip), vehicle: water) 6 of 6; (dose: 1.0 mg/kg/injection, schedule: Q04DX003 (ip), vehicle: other) 10 of 10; (dose: 1.6 mg/kg/injection, schedule: Q01DX001 (ip), vehicle: other) 8 of 10; (dose: 1.6 mg/kg/injection, schedule: Q08DX002 (ip), vehicle: other) 9 of 10; (dose: 2.0 mg/kg/injection, schedule: Q01DX001 (ip), vehicle: other) 0 of 10; (dose: 2.0 mg/kg/injection, schedule: Q03HX008 (ip), vehicle: other) 10 of 10. In addition, the survivor count was 1 of 10 (dose: 2.0 mg/kg/injection, schedule: Q04DX003 (ip), vehicle: other); 4 of 10 (dose: 2.0 mg/kg/injection, schedule: Q08DX002 (ip), vehicle: other); 0 of 10 (dose: 4.0 mg/kg/injection, schedule: Q01DX001 (ip), vehicle: other); 0 of 10 (dose: 4.0 mg/kg/injection, schedule: Q08DX002 (ip), vehicle: other); 6 of 10 (dose: 8.0 mg/kg/injection, schedule: Q01DX001 (oral), vehicle: other); 1 of 10 (dose: 16.0 mg/kg/injection, schedule: Q01DX001 (oral), vehicle: other). Moreover, the survivor count runs as follows: (dose: 250.0 micrograms/kg/injection, schedule: Q03HX016 (ip), vehicle: other) 10 of 10; (dose: 250.0 micrograms/kg/injection, schedule: Q03HX024 (ip), vehicle: other) 10 of 10; (dose: 500.0 micrograms/kg/injection, schedule: Q01DX009 (ip), vehicle: other) 10 of 10; (dose: 500.0 micrograms/kg/injection, schedule: Q03HX008 (ip), vehicle: other) 0 of 10; (dose: 500.0 micrograms/kg/injection, schedule: Q03HX016 (ip), vehicle: other) 2 of 10.

With `O=C1C=CC(=O)N1c1ccc([N+](=O)[O-])cc1`, the survivor count (dose: 21.0 mg/kg/injection, schedule: Q01DX009 (ip), vehicle: Klucel (hydroxypropylcellulose) (HPC)) was 2 of 6; the survivor count (dose: 30.0 mg/kg/injection, schedule: Q04DX003 (ip), vehicle: Klucel (hydroxypropylcellulose) (HPC)) is reported as 1 of 6; the survivor count (dose: 50.0 mg/kg/injection, schedule: Q01DX009 (ip), vehicle: saline with Tween-80) is listed as 5 of 6; the survivor count (dose: 100.0 mg/kg/injection, schedule: Q01DX009 (ip), vehicle: saline with Tween-80) is listed as 2 of 6; the survivor count (dose: 200.0 mg/kg/injection, schedule: Q01DX009 (ip), vehicle: saline with Tween-80) is 0 of 6.

As to `NC(=O)NCCCC(N)C(=O)O` (stereo unspecified), under “dose: 400.0 mg/kg/injection, schedule: Q01DX010 (ip), vehicle: saline”, the survivor count is 4 of 6.
